Measurements taken from the supplement of paper PMC7666118.
The list shows a part of the results.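 The calls were made as follows: active = dose-dependent thermal stabilisation significant by F-test of dose-response against flat model at 10% FDR; inactive = not significant.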

Chains of the proteins cited; added tags and fusions are not shown. Lines headed by an entry give the natural chain unless they say otherwise; changes in a name come on top.
UniProt Q9GZU8: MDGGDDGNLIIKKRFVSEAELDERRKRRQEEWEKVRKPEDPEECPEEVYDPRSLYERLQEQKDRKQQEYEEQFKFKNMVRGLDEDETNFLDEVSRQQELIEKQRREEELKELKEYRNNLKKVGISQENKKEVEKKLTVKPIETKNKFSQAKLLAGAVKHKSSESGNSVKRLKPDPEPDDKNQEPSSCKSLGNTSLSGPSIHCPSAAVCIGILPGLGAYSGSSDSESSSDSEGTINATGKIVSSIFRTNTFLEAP
UniProt Q9Y3I1: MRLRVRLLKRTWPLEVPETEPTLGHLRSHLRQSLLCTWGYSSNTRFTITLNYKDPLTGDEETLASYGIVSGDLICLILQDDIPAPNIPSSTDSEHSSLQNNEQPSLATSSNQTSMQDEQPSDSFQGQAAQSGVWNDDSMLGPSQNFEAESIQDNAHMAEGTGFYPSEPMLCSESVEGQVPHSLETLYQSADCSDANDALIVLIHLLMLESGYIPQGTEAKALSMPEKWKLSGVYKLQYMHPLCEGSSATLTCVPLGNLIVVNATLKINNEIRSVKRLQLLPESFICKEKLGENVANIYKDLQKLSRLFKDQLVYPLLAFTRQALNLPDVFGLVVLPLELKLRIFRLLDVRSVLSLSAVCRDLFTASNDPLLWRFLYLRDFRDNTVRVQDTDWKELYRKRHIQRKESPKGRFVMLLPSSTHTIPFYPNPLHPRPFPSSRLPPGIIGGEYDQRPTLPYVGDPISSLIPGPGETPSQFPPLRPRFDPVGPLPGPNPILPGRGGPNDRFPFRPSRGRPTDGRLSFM
UniProt P13929, whole entry: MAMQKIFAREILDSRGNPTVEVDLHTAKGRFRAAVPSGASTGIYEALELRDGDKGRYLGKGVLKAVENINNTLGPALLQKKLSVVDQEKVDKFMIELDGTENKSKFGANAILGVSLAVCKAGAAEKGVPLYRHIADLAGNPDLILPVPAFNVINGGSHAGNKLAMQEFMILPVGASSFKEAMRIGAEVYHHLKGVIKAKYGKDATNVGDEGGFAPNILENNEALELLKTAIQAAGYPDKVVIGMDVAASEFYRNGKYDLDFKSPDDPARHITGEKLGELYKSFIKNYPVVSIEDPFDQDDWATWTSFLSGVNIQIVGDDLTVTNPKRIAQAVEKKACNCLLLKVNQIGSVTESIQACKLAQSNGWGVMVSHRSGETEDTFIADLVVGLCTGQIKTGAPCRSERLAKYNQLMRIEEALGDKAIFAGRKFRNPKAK
UniProt Q32P44: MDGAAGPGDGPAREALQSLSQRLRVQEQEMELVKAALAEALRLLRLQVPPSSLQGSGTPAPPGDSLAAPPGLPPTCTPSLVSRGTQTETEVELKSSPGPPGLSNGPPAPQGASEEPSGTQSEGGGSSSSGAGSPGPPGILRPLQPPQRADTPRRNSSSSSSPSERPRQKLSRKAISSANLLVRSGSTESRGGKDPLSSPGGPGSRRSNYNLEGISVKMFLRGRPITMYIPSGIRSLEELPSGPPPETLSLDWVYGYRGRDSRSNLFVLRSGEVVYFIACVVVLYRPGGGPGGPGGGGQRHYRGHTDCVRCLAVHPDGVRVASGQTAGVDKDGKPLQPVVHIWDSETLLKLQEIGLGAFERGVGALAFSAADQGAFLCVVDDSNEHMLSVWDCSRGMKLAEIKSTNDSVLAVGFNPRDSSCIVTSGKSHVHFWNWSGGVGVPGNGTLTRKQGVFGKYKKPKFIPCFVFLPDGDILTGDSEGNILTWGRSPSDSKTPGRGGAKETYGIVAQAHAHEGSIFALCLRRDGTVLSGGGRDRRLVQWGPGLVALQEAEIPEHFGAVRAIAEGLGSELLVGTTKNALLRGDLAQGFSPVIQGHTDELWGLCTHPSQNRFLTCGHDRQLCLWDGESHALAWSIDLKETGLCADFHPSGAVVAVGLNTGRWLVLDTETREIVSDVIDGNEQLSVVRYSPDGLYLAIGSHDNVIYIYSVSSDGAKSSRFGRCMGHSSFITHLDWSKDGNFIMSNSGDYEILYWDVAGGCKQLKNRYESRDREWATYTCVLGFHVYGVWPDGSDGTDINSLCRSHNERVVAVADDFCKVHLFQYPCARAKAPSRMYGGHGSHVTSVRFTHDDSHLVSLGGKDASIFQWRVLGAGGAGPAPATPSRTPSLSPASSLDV
UniProt Q00688: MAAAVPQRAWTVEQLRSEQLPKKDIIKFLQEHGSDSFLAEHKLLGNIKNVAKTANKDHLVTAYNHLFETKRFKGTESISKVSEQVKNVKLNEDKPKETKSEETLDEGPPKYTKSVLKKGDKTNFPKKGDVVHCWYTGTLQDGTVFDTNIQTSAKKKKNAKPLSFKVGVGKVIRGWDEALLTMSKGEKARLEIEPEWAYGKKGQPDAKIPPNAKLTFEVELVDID
UniProt P02792: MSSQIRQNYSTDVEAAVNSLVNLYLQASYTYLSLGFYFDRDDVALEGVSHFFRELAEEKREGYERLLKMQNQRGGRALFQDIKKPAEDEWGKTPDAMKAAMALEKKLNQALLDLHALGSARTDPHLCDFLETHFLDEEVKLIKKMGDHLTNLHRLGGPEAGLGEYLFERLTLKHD
UniProt P55199: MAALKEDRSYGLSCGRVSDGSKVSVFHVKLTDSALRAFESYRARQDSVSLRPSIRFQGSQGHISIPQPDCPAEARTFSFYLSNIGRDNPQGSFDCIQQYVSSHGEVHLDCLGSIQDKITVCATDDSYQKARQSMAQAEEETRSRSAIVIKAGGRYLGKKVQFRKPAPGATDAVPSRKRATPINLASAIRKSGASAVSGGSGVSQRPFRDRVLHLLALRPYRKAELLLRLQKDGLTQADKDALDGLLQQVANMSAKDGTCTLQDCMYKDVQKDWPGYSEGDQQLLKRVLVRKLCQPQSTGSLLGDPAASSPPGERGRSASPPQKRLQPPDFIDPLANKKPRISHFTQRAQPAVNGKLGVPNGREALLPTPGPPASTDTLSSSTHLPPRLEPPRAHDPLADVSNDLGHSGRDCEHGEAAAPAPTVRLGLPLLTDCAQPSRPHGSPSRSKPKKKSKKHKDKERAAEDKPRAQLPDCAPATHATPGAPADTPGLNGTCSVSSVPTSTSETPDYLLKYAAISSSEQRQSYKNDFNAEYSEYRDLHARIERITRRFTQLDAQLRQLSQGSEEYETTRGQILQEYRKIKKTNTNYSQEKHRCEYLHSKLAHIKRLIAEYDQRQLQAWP
UniProt P23142: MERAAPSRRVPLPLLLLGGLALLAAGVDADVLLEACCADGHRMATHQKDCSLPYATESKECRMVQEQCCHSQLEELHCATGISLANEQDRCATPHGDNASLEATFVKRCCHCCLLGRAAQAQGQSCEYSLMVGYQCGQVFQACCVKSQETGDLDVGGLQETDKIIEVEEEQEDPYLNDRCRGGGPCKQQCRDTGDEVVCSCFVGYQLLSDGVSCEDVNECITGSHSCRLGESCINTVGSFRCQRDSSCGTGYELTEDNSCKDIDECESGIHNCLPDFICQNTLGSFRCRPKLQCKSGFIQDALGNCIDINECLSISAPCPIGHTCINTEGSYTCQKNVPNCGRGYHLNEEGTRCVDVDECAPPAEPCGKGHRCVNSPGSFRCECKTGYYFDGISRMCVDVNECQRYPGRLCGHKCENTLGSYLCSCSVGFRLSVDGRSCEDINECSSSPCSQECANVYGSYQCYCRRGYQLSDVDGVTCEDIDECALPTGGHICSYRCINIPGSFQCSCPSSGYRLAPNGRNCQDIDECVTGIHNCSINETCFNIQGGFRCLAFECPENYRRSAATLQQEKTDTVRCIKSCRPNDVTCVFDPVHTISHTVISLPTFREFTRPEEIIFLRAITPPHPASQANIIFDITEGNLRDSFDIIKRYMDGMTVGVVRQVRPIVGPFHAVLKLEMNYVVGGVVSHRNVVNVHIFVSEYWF
UniProt Q5XUX1: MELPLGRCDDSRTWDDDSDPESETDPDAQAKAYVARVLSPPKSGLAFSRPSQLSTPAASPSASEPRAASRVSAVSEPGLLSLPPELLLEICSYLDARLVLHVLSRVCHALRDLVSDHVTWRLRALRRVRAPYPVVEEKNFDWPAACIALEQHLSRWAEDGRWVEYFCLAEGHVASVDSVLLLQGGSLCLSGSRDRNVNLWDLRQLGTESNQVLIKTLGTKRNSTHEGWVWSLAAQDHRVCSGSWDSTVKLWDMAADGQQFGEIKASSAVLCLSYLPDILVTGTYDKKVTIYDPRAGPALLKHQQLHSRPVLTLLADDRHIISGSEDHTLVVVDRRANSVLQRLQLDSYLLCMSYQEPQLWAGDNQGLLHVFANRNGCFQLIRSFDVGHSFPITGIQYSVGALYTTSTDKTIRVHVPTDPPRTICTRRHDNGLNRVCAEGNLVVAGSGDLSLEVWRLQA
UniProt P06730, whole entry: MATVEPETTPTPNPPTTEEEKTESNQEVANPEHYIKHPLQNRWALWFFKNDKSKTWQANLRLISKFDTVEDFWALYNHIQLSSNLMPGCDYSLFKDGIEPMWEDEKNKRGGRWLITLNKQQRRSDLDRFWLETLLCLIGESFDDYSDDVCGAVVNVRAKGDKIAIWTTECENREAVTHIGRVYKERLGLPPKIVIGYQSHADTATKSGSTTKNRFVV
UniProt Q9H501: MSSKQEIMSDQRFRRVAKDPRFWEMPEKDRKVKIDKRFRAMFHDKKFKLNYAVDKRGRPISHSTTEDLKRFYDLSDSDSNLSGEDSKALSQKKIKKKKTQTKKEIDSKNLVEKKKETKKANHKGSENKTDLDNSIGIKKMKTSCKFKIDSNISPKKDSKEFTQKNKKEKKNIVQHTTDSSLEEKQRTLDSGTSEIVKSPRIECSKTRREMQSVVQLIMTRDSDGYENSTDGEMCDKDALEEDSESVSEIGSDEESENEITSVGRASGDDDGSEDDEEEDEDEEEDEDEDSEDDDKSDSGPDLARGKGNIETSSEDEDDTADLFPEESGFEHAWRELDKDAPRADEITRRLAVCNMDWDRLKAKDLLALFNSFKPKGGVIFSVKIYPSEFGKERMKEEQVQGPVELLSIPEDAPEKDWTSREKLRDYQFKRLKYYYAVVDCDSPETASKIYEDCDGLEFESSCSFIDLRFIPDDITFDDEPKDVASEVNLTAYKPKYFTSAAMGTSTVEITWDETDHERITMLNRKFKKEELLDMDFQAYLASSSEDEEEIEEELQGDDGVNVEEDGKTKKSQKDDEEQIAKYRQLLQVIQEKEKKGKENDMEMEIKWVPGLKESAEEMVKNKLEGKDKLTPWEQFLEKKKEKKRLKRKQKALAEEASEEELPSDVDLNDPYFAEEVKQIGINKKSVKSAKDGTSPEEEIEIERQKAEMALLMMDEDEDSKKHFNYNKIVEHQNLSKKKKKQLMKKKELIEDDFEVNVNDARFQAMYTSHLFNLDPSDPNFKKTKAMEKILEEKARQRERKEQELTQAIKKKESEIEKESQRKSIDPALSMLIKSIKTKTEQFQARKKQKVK
UniProt Q9NRY5: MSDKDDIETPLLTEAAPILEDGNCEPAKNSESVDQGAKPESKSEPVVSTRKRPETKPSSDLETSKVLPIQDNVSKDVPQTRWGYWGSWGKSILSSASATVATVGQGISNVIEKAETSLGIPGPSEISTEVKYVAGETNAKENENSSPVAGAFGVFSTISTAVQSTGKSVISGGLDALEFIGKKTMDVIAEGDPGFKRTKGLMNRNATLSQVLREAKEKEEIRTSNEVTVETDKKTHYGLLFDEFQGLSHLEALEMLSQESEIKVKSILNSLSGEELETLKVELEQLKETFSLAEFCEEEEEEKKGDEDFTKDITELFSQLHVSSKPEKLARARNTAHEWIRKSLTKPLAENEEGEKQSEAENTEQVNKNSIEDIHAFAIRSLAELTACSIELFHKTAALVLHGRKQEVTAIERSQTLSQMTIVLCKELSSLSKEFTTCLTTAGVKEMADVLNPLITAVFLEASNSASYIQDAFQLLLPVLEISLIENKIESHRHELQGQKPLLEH
UniProt Q01167: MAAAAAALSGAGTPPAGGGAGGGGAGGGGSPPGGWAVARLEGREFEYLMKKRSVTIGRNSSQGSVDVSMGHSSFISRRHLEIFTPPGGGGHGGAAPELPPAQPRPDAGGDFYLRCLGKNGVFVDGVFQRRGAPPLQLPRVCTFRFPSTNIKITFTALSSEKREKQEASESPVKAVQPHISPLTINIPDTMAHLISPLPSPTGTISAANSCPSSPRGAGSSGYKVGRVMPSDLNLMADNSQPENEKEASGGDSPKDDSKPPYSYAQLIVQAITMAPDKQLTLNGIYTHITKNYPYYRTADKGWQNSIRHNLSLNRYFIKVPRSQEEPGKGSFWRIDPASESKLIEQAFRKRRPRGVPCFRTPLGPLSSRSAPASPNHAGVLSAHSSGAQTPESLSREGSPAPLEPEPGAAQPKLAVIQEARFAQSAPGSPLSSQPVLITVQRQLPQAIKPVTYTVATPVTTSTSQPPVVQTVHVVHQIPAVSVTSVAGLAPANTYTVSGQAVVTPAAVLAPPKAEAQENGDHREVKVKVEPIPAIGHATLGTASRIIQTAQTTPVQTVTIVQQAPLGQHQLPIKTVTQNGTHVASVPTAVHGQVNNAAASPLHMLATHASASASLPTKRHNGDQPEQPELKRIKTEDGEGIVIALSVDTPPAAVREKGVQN

Compound: Nc1nc2c(ncn2[C@@H]2O[C@H](COP(=O)(O)OP(=O)(O)OP(=O)(O)O)[C@@H](O)[C@H]2O)c(=O)[nH]1
Test: dose-dependent thermal stabilisation call (2D-TPP, DLPTP, 10% FDR) (binary (1 = stabilised)); higher = stabilised by the compound
Conditions: system: Jurkat gel-filtered lysate; concentration range 1-500 µM
Description: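 2D thermal proteome profiling in gel-filtered Jurkat E6.1 lysate (2 mg/ml) treated with NaGTP (0, 1, 10, 100, 500 uM) for 10 min at room temperature, then heated 3 min at one of 12 temperatures (42-63.9 C). Soluble protein was quantified by TMT10 MS. The value is the DLPTP call of the paper: dose-dependent thermal stabilisation over all temperatures at 10% FDR (F-test of a dose-response against a flat model); one experiment, one call per tested protein.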

Row | Target | dose-dependent thermal stabilisation call
1 | FKBP15 (UniProt Q5T1M5) | inactive: 0
2 | ELMO2 (UniProt Q96JJ3) | active: 1
3 | EHMT2 (UniProt Q96KQ7) | inactive: 0
4 | EIF2AK2 (UniProt P19525) | inactive: 0
5 | FAHD1 (UniProt Q6P587) | inactive: 0
6 | EZR (UniProt P15311) | inactive: 0
7 | FLNA (UniProt P21333) | inactive: 0
8 | ERCC8 (UniProt Q13216) | inactive: 0
9 | EIF3B (UniProt P55884) | inactive: 0
10 | FKBP4 (UniProt Q02790) | inactive: 0
11 | FBXO4 (UniProt Q9UKT5) | inactive: 0
12 | FAM192A (UniProt Q9GZU8) | inactive: 0
13 | FAM46C (UniProt Q5VWP2) | inactive: 0
14 | EIF2B3 (UniProt Q9NR50) | inactive: 0
15 | FBXO7 (UniProt Q9Y3I1) | inactive: 0
16 | FAM98C (UniProt Q17RN3) | active: 1
17 | ENO3 (UniProt P13929) | inactive: 0
18 | ENOPH1 (UniProt Q9UHY7) | inactive: 0
19 | FKBPL (UniProt Q9UIM3) | inactive: 0
20 | FAM60A (UniProt Q9NP50) | inactive: 0

Row | Target | dose-dependent thermal stabilisation call
21 | FRMD8 (UniProt Q9BZ67) | inactive: 0
22 | EML3 (UniProt Q32P44) | inactive: 0
23 | FKBP3 (UniProt Q00688) | inactive: 0
24 | FTL (UniProt P02792) | inactive: 0
25 | FAM111B (UniProt Q6SJ93) | inactive: 0
26 | ELOA (UniProt Q14241) | inactive: 0
27 | ELL (UniProt P55199) | active: 1
28 | FAAP100 (UniProt Q0VG06) | inactive: 0
29 | EWSR1 (UniProt Q01844) | inactive: 0
30 | FBLN1 (UniProt P23142) | inactive: 0
31 | FBXW9 (UniProt Q5XUX1) | inactive: 0
32 | EIF4E (UniProt P06730) | active: 1
33 | EIF3K (UniProt Q9UBQ5) | active: 1
34 | ESF1 (UniProt Q9H501) | inactive: 0
35 | FAM114A2 (UniProt Q9NRY5) | inactive: 0
36 | ESYT1 (UniProt Q9BSJ8) | inactive: 0
37 | FAM175B (UniProt Q15018) | inactive: 0
38 | FOXK2 (UniProt Q01167) | active: 1
39 | EXOSC9 (UniProt Q06265) | inactive: 0
40 | ETNK1 (UniProt Q9HBU6) | active: 1

2 entries picked at random from those above:
Row | Target | dose-dependent thermal stabilisation call
40 | ETNK1 (UniProt Q9HBU6) | active: 1
18 | ENOPH1 (UniProt Q9UHY7) | inactive: 0
